Laboratory results as given in paper PMC8338941.
No constants are given. Whether binding was seen depends on the method and setting. For part of these data: Binding seen in cells or lysates may run through a third protein. Some entries that bind do so weakly or less than the wild type.

The chains behind the UniProt entries cited, without tags or fusion partners. Where a name states a change or a piece, a line headed by the entry shows the natural chain unless it says otherwise.
UniProt Q04373: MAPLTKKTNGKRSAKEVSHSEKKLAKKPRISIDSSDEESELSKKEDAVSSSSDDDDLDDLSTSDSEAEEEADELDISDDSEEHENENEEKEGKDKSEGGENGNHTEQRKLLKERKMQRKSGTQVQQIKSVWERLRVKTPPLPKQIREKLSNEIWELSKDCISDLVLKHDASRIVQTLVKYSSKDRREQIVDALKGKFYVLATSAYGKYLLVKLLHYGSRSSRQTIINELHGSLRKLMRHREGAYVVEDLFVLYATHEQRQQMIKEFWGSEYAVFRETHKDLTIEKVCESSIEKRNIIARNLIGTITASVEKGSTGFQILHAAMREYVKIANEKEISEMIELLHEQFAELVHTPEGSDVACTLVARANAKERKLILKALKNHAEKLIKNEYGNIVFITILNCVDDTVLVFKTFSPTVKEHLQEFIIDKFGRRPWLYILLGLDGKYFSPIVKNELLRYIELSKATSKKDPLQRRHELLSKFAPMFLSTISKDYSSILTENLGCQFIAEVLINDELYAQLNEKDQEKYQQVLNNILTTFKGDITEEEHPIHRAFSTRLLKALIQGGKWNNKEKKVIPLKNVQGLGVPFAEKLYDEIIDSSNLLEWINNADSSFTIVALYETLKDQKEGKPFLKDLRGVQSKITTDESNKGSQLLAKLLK
UniProt P53742: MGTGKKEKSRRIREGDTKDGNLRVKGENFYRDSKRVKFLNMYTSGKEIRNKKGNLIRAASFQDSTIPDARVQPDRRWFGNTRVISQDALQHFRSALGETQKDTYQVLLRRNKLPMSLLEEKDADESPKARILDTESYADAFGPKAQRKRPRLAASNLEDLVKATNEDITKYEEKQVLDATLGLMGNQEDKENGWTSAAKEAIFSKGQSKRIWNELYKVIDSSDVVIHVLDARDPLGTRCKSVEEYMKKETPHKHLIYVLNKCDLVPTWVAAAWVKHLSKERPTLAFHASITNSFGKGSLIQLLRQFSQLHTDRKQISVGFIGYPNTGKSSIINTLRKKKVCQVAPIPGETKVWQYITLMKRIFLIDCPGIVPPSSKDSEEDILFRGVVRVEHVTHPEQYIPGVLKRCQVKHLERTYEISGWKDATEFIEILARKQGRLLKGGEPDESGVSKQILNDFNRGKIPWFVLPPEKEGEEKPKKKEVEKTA
UniProt P38789: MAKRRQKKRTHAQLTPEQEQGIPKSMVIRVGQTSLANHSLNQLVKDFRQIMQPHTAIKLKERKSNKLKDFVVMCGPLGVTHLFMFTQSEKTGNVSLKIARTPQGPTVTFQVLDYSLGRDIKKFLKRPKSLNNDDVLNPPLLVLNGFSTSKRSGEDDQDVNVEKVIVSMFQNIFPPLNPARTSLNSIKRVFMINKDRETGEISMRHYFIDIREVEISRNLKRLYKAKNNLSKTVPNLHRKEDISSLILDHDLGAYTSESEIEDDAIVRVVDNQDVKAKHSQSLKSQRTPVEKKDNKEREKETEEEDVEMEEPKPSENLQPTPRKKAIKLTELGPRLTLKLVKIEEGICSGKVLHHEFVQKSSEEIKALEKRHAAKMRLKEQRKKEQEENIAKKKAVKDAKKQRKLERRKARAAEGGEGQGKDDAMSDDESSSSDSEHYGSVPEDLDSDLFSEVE
UniProt Q12019: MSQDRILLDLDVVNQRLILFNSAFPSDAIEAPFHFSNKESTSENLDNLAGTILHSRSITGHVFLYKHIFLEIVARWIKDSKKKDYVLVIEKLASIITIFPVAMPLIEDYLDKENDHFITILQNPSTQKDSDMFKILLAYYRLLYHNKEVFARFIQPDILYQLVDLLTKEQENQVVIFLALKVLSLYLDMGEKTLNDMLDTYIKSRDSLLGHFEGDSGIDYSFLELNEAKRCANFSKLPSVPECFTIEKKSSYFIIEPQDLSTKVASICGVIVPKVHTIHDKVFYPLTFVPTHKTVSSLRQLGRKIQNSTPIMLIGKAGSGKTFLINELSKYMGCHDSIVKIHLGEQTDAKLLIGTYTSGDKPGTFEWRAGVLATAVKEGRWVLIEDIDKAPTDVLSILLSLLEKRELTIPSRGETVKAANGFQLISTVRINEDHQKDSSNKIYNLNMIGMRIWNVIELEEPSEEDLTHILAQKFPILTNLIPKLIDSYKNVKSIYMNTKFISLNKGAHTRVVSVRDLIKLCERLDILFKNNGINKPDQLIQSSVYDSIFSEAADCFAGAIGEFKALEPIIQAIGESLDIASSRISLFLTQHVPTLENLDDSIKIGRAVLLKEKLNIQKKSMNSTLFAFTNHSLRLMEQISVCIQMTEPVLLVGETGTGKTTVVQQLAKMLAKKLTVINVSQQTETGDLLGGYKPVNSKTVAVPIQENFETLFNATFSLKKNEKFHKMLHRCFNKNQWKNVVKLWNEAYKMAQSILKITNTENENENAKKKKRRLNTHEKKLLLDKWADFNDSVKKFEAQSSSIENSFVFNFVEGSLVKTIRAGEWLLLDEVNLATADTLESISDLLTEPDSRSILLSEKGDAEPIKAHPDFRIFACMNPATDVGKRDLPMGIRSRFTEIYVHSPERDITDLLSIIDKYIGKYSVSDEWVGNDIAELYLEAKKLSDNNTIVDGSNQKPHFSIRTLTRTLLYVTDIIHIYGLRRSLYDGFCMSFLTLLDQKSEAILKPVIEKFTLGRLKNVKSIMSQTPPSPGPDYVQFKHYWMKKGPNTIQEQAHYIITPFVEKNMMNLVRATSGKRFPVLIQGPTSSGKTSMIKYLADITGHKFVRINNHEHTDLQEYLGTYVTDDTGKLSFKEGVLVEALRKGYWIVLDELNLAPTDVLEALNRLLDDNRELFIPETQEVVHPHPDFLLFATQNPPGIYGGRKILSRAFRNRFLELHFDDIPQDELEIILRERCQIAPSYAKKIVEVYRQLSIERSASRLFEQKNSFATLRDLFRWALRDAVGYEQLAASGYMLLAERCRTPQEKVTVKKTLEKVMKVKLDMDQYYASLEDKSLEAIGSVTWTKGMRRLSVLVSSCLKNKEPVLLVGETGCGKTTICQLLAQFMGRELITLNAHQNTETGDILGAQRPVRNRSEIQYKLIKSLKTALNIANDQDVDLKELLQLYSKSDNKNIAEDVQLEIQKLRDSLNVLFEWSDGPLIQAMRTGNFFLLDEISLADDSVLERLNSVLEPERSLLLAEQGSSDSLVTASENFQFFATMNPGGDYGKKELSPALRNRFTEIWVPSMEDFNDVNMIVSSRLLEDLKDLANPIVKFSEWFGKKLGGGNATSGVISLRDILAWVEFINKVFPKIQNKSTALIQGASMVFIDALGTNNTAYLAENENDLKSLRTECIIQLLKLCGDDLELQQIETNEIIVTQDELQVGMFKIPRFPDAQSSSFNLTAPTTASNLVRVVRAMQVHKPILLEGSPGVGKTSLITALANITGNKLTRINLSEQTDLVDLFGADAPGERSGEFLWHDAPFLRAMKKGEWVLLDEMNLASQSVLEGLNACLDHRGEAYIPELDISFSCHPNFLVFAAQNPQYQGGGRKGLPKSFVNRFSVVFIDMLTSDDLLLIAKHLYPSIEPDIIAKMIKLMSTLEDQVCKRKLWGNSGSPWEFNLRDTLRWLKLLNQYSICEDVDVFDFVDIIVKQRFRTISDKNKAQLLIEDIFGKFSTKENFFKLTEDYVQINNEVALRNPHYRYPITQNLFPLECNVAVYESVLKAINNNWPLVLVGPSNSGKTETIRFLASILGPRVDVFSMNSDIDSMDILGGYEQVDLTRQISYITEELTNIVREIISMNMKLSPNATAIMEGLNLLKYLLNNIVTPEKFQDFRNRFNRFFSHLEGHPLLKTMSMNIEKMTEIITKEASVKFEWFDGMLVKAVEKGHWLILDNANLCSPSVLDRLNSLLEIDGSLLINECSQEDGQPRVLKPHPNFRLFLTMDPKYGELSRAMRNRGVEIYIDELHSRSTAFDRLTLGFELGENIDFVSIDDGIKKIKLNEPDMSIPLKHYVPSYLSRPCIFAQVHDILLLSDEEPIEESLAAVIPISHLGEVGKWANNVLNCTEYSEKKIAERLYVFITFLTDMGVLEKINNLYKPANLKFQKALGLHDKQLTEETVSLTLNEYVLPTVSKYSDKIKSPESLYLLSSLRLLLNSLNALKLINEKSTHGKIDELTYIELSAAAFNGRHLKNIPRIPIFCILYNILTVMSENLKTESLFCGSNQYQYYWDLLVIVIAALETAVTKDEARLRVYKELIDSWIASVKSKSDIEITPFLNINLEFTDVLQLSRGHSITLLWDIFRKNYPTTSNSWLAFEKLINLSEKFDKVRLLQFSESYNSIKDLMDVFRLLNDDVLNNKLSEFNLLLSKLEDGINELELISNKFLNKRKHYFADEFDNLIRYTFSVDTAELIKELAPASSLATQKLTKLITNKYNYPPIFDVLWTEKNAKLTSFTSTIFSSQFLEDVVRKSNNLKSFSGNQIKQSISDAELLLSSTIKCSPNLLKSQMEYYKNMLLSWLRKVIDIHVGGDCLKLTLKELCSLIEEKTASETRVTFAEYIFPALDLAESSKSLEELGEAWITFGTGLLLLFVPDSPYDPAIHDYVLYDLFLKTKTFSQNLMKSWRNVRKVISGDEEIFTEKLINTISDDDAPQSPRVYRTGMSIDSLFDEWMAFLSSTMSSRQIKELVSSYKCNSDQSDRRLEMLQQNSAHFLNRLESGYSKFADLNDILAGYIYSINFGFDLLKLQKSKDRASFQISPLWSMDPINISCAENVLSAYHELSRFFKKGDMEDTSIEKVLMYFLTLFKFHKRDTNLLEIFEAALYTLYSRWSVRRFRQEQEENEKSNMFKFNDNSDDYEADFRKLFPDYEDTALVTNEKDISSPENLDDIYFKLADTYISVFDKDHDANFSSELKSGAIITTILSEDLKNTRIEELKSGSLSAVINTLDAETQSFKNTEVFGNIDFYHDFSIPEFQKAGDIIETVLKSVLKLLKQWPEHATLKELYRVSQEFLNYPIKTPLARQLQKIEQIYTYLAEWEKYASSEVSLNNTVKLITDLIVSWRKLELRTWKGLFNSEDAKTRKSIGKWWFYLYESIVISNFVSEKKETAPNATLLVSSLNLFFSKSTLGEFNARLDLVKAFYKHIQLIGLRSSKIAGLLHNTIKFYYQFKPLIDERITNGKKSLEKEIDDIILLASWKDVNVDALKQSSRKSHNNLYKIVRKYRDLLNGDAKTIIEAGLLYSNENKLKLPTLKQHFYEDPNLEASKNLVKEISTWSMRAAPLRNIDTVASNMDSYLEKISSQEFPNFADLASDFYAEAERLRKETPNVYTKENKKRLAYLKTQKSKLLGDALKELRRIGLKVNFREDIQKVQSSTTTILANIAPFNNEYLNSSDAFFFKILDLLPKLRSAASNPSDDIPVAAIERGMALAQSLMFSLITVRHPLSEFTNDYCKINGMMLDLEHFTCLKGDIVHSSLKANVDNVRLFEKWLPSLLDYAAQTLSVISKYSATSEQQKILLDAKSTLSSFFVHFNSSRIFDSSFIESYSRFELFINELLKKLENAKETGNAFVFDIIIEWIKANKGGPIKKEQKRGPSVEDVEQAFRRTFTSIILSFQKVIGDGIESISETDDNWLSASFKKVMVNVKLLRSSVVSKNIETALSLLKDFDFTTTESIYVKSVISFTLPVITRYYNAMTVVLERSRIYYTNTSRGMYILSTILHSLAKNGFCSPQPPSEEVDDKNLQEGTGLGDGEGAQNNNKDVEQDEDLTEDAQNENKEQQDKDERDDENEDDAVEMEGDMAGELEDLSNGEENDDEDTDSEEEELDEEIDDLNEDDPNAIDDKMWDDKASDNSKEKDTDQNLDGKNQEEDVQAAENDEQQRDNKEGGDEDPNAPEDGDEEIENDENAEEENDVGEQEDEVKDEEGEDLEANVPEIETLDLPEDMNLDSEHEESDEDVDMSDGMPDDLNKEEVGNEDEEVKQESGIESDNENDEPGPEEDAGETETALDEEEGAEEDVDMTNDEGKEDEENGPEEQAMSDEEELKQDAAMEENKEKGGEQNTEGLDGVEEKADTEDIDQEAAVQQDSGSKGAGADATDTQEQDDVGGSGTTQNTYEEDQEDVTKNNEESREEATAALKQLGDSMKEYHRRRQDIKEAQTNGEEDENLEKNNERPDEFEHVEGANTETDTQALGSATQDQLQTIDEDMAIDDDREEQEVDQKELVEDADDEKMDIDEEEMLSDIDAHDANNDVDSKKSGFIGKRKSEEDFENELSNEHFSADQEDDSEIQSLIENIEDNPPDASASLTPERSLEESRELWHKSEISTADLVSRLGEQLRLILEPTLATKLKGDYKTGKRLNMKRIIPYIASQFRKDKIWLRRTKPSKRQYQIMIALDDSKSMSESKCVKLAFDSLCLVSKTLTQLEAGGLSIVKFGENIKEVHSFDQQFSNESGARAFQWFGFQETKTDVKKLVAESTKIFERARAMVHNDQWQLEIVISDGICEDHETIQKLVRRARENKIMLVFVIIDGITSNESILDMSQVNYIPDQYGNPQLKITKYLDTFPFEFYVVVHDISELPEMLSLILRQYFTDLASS

Columns and labels:
uL2 = uL2 (UniProt P0CX45); test: cross-linking; XL-MS of reconstituted Puf6:60S complex; 100 μM purified 60S ribosome with 200 μM Puf6, 20 °C 10 min, 150 mM NaCl, 20 mM HEPES pH7.5, 5 mM MgCl2, 5 mM β-mercaptoethanol; 1 mM DSS-d0/d12, 37 °C 30 min; false discovery rate <5%; both purified
[1] = target: T1, Kre35-TAP (S. cerevisiae) (UniProt P53145); test: co-IP; Tandem affinity purification (TAP) of 60S pre-ribosomal particles via TAP-tagged bait proteins from yeast; calmodulin eluates separated on NuPAGE 4-12% Bis-Tris gels, Western blotting
T1 sequence: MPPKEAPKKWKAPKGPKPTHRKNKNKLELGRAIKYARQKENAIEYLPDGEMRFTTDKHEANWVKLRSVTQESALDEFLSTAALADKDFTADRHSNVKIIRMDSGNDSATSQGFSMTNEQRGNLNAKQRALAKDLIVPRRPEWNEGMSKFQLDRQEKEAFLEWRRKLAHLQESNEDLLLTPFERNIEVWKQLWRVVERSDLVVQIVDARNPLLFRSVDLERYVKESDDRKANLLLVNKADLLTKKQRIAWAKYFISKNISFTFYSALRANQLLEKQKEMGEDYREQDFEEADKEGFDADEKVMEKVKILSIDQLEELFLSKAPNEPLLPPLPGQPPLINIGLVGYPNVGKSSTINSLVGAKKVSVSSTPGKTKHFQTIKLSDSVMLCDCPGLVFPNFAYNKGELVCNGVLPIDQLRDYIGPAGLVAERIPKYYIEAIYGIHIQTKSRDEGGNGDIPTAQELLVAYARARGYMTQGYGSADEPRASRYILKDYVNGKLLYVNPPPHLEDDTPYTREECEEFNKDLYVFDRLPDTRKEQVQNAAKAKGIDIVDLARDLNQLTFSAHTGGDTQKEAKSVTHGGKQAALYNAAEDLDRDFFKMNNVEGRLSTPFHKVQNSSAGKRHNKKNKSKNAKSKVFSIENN

Puf6-TAP (S. cerevisiae) = Puf6-TAP (S. cerevisiae) (UniProt Q04373); test: as above
Arx1-TAP (S. cerevisiae) = target: T2, Arx1-TAP (S. cerevisiae) (UniProt Q03862); test: as above
T2 sequence: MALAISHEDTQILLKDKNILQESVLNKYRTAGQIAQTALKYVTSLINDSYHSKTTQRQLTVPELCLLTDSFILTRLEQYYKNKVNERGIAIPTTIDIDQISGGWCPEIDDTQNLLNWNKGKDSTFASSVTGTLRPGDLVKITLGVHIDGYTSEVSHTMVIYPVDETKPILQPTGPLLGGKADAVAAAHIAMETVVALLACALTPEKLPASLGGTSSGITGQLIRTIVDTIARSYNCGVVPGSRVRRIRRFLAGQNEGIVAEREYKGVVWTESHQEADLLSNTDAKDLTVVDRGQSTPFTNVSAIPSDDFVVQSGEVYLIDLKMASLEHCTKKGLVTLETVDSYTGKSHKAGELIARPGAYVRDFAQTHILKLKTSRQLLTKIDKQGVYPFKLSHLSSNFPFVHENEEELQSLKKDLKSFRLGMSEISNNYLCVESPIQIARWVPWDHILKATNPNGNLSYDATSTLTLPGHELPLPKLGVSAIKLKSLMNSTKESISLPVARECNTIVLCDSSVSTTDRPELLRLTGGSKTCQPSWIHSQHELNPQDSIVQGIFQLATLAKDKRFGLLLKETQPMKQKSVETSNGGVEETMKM

Rix1-TAP (S. cerevisiae) = target: T3, Rix1-TAP (S. cerevisiae) (UniProt P38883); test: as above
T3 sequence: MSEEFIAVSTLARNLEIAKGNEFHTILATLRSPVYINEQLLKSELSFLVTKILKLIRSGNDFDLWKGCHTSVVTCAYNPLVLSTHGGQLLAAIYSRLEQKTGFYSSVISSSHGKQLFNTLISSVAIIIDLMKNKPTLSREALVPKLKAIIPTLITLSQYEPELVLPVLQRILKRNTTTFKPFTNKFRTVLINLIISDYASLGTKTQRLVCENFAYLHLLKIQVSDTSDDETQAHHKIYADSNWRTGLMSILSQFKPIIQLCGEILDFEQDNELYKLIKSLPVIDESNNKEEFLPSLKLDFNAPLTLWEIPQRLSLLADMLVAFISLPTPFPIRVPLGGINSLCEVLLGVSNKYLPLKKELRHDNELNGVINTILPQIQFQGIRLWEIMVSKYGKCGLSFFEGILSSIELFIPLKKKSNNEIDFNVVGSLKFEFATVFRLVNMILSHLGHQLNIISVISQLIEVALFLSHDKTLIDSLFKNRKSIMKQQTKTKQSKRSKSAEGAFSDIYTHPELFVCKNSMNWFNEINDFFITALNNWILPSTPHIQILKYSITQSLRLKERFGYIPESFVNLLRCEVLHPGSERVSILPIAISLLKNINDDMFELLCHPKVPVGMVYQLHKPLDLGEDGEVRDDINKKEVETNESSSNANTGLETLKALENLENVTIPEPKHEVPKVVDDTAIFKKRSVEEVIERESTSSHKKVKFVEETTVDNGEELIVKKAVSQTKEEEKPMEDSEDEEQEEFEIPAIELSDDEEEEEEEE

Nog2-TAP (S. cerevisiae) = Nog2-TAP (S. cerevisiae) (UniProt P53742); test: as above
Ssf1-TAP (S. cerevisiae) = Ssf1-TAP (S. cerevisiae) (UniProt P38789); test: as above
Nop7-TAP (S. cerevisiae) = target: T4, Nop7-TAP (S. cerevisiae) (UniProt P53261); test: co-IP; Nop7-TAP particles isolated from WT and puf6∆ cells grown at 20 °C; NuPAGE 4-12% Bis-Tris gel, Silver staining and Western analysis
T4 sequence: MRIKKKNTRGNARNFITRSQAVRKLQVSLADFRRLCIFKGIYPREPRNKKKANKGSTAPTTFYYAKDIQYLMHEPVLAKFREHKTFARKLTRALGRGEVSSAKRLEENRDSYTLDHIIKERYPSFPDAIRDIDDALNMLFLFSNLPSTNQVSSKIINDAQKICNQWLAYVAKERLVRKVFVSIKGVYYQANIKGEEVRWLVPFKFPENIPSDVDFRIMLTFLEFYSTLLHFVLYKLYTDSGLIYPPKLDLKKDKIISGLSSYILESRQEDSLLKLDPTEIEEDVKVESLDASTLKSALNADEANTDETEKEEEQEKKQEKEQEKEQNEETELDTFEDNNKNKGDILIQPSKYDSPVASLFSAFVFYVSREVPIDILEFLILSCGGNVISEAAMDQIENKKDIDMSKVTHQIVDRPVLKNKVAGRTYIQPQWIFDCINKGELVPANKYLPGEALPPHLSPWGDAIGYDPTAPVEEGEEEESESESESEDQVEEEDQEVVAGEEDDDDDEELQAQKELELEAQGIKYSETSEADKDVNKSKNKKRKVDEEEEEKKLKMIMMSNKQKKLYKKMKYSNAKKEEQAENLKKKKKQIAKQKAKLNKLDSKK

Substance | binding [1] | binding (Arx1-TAP (S. cerevisiae)) | binding (Ssf1-TAP (S. cerevisiae)) | other results
His6-Puf6 (from UniProt Q04373 1-656) |  |  |  | binding (uL2): binds
Nog2 (from UniProt P53742 1-486) | no binding | binds weakly |  | binding (Puf6-TAP (S. cerevisiae)): no binding; binding (Rix1-TAP (S. cerevisiae)): binds
Puf6 (from UniProt Q04373 1-656) | no binding | no binding | binds | binding (Nog2-TAP (S. cerevisiae)): no binding
Rea1 (from UniProt Q12019 1-4910) |  |  |  | binding (Nop7-TAP (S. cerevisiae)): binds
puf6 R172E R431E (from UniProt Q04373 1-656) |  |  | no binding | 
puf6 Y208E R431E (from UniProt Q04373 1-656) |  |  | no binding | 
